Measured data: PubChem BioAssay AID652243 (Drosophila RNAi Screening Center, 2013)

Assay: 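Fly genes required for human androgen receptor driven transcription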 (primary screen)
Cell system: Drosophila S2R+ cells
Reagents: long dsRNA against Drosophila genes
Duration: 72 h (48 h, then 24 h hormone)
Conditions: synthetic androgen R1881 at 10 nM for 24 h
Measurement: 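Per-well raw luminescence of the androgen-driven firefly reporter and of the Renilla control, two replicates each, without normalisation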
Direction: firefly reporter light: higher = more light from androgen-responsive reporter; Renilla control light: higher = more constitutive control signal (cell number, transfection)
Active means: 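Across duplicate plates, a knock-down whose log firefly/Renilla ratio shifted a set fold down or up from the GFP/LacZ control mean was a hit; the downward cut appears as both 1.5 and 3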
Calls: active = hit: reporter lowered or raised; inactive = no hit
The screen tested about 24,000 reagents; below is an unselected part of those that have a named target and a result. Over the whole deposit, 246 (1%) were called active. 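Plates not normalised; calls are printed but the firefly/Renilla ratio behind them is not deposited; fold cut for lowering reported inconsistently.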 Raw values vary from plate to plate and are shown uncorrected. The numbers tell different reagents against one gene apart. A plus sign joins genes that one reagent is predicted to hit. The record does not give: the amount of reagent.

no.	Target gene	dsRNA no.	firefly reporter light, replicate 1	firefly reporter light, replicate 2	Renilla control light, replicate 1	Renilla control light, replicate 2	Call
1	CG14841	1	1.44e5	93203	1.90e6	1.83e6	inactive
2	CG14841	2	1.72e5	1.91e5	4.93e5	2.94e5	inactive
3	ND-B17 (NADH dehydrogenase (ubiquinone) B17 subunit)	1	1.44e5	1.58e5	1.94e6	1.96e6	inactive
4	Klp61F (Kinesin-like protein at 61F)	1	46578	55857	3.90e5	3.76e5	inactive
5	Klp61F (Kinesin-like protein at 61F)	2	3.06e5	3.34e5	9.03e5	7.89e5	inactive
6	gnu (giant nuclei)	1	1.34e6	9.73e5	1.44e6	1.62e6	inactive
7	CG8292	1	2.21e5	2.13e5	1.77e6	1.22e6	inactive
8	Gbp1 (Growth-blocking peptide 1)	1	78414	93271	1.86e6	1.86e6	inactive
9	CG12164	1	1.09e6	1.14e6	1.09e6	1.17e6	inactive
10	CG12164	2	3.83e5	3.37e5	1.64e6	1.62e6	inactive
11	CG12164	3	1.20e6	1.40e6	1.30e6	1.36e6	inactive
12	Pyroxd1 (Pyridine nucleotide-disulfide oxidoreductase domain 1)	1	29296	47183	5.53e5	1.04e6	active
13	CG13601	1	92202	97241	6.69e5	8.43e5	inactive
14	Ir8a (Ionotropic receptor 8a)	1	1.40e5	2.33e5	2.07e6	2.49e6	inactive
15	Ir8a (Ionotropic receptor 8a)	2	3.30e5	5.28e5	1.79e6	2.62e6	inactive
16	Irp-1A (Iron regulatory protein 1A)	1	4.75e5	6.20e5	1.64e6	2.45e6	inactive
17	CG4884	1	1.50e5	1.91e5	1.34e6	2.31e6	inactive
18	CG4884	2	2.72e5	2.75e5	7.37e5	6.84e5	inactive
19	Ca-alpha1T (Ca[2+]-channel protein alpha[[1]] subunit T)	1	2.58e5	1.50e5	3.11e6	2.13e6	inactive
20	Ca-alpha1T (Ca[2+]-channel protein alpha[[1]] subunit T)	2	2.79e5	2.14e5	2.32e6	1.84e6	inactive
21	Ca-alpha1T (Ca[2+]-channel protein alpha[[1]] subunit T)	3	1.13e5	2.42e5	2.03e6	1.75e6	inactive
22	Ca-alpha1T (Ca[2+]-channel protein alpha[[1]] subunit T)	4	4.27e5	4.31e5	2.43e6	2.89e6	inactive
23	Ca-alpha1T (Ca[2+]-channel protein alpha[[1]] subunit T)	5	6.38e5	6.48e5	2.61e6	2.51e6	inactive
24	CG3045	1	7.98e5	8.39e5	1.76e6	1.82e6	inactive
25	CG13228	1	1.85e5	1.78e5	1.29e6	9.47e5	inactive
26	CG13228	2	7.40e5	4.99e5	3.43e6	2.08e6	inactive
27	gas (gasoline)	1	2.80e5	2.85e5	2.04e6	1.39e6	inactive
28	CG32773 (retired record)	1	5.30e5	7.64e5	4.10e5	6.16e5	inactive
29	wek (weckle)	1	1.01e6	1.17e6	1.43e6	1.80e6	inactive
30	Ste:CG33238 + Ste:CG33241 + Ste:CG33236 + 11 more	1	6.10e5	4.63e5	5.50e5	3.74e5	inactive
31	Ste:CG33238 + Ste:CG33241 + Ste:CG33236 + 11 more	2	1.83e5	2.14e5	6.42e5	6.56e5	inactive
32	CG13407	1	2.35e5	3.63e5	4.14e6	4.42e6	inactive
33	CG13407	2	8.14e5	1.04e6	1.33e6	1.42e6	inactive
34	CG9967	1	2.79e5	3.12e5	2.22e6	2.22e6	inactive
35	CG9967	2	1.26e6	1.39e6	1.68e6	1.42e6	inactive
36	gig (gigas)	1	41719	52447	2.62e5	2.14e5	inactive
37	gig (gigas)	2	6.75e5	5.43e5	1.87e6	1.55e6	inactive
38	Hsp68 (Heat shock protein 68)	1	1.85e5	2.28e5	2.33e6	1.95e6	inactive
39	svr (silver)	1	1.14e6	7.00e5	1.47e6	8.77e5	inactive
40	svr (silver)	2	3.30e5	3.28e5	4.18e6	3.39e6	inactive
41	svr (silver)	3	2.02e5	2.64e5	7.70e5	8.80e5	inactive
42	svr (silver)	4	9.07e5	6.56e5	2.07e6	1.27e6	inactive
43	Pdi (Protein disulfide isomerase)	1	2.37e5	2.76e5	2.13e6	2.20e6	inactive
44	Pdi (Protein disulfide isomerase)	2	5.18e5	5.62e5	8.07e5	6.97e5	inactive
45	CG31808	1	3.80e5	6.94e5	1.24e6	2.37e6	inactive
46	CG31808	2	5.91e5	4.67e5	1.52e6	1.47e6	inactive
47	Ca-Ma2d (Ca[2+] channel Muscle-specific alpha2/delta subunit)	1	5.69e5	4.91e5	1.67e6	1.81e6	inactive
48	CG18787 + CG18789	1	6.07e5	7.66e5	5.72e5	7.85e5	inactive
49	Ppt2 (Palmitoyl-protein Thioesterase 2)	1	1.15e6	1.66e6	2.71e6	3.07e6	inactive
50	Ppt2 (Palmitoyl-protein Thioesterase 2)	2	5.40e5	5.08e5	6.97e5	7.66e5	inactive
51	CG31677	1	7.61e5	7.57e5	2.08e6	2.32e6	inactive
52	CG4119	1	76220	98367	9.10e5	9.40e5	inactive
53	CG4119	2	2.80e5	1.51e5	2.80e6	1.37e6	inactive
54	Acp98AB (Accessory gland protein 98AB)	1	6.51e5	7.24e5	1.26e6	1.15e6	inactive
55	kto (kohtalo)	1	21206	27042	4.60e5	3.56e5	inactive
56	CG12112	1	1.05e5	99630	7.62e5	8.10e5	inactive
57	CG3734	1	1.77e5	2.05e5	2.60e6	2.67e6	inactive
58	CG3734	2	5.06e5	4.17e5	8.89e5	7.17e5	inactive
59	CG17266	1	3.82e5	4.19e5	2.52e6	2.55e6	inactive
60	CG17266	2	8.57e5	8.95e5	1.75e6	1.78e6	inactive
61	CG17266	3	4.32e5	4.27e5	7.60e5	7.34e5	inactive
62	Blm + CG14721	1	2.69e5	3.46e5	4.13e6	4.24e6	inactive
63	Lhr (Lethal hybrid rescue)	1	1.24e6	7.03e5	1.99e6	1.38e6	inactive
64	Lhr (Lethal hybrid rescue)	2	3.78e5	4.18e5	3.57e5	2.53e5	inactive
65	scpr-C + scpr-B + scpr-A	1	4.70e5	4.96e5	8.03e5	7.95e5	inactive
66	robl62A	1	88079	54846	1.07e6	8.68e5	inactive
67	Sik3 (Salt-inducible kinase 3)	1	1.48e5	1.35e5	2.54e6	2.31e6	inactive
68	Sik3 (Salt-inducible kinase 3)	2	3.71e5	3.24e5	4.01e5	3.30e5	inactive
69	Sik3 (Salt-inducible kinase 3)	3	5.55e5	4.94e5	1.13e6	1.10e6	inactive
70	Sik3 (Salt-inducible kinase 3)	4	4.33e5	3.76e5	1.61e6	1.46e6	inactive
71	Sik3 (Salt-inducible kinase 3)	5					inactive
72	Sik3 (Salt-inducible kinase 3)	6					inactive
73	CG17163	1	1.35e5	1.52e5	6.34e5	6.47e5	inactive
74	CG5390	1	1.30e5	1.92e5	7.25e5	8.67e5	inactive
75	CG5390	2	3.77e5	2.71e5	3.90e5	5.66e5	inactive

Reprinted from the listing, 6 entries:
no.	Target gene	dsRNA no.	firefly reporter light, replicate 1	firefly reporter light, replicate 2	Renilla control light, replicate 1	Renilla control light, replicate 2	Call
52	CG4119	1	76220	98367	9.10e5	9.40e5	inactive
53	CG4119	2	2.80e5	1.51e5	2.80e6	1.37e6	inactive
54	Acp98AB (Accessory gland protein 98AB)	1	6.51e5	7.24e5	1.26e6	1.15e6	inactive
55	kto (kohtalo)	1	21206	27042	4.60e5	3.56e5	inactive
56	CG12112	1	1.05e5	99630	7.62e5	8.10e5	inactive
57	CG3734	1	1.77e5	2.05e5	2.60e6	2.67e6	inactive
